Assay results reported in patent publication US7611852B2, “Functional cardiomyocytes from human embryonic stem cells” (Wisconsin Alumni Research Foundation, priority 2002, dated 2009).

Tested on: embryonic ventricular-like cardiomyocytes
Conditions: CMs treated with E-4031; never observed in the absence of E-4031

`Cc1cccc(CCN2CCC(C(=O)c3ccc(NS(C)(=O)=O)cc3)CC2)n1` [E-4031] was tested, and the “EADs (early afterdepolarizations) observed, fraction of cells” value was “⅗”.
